Test results from article PMC7910457.
These are yes or no findings as the source states them, for the method shown. In cells and extracts the contact can be indirect. Here binding means that the protein was enriched with, or labelled near, the bait; the list need not be complete. Sequences can lack the tags named with a protein.

Chains of the proteins cited; added tags and fusions are not shown.
UniProt O43581: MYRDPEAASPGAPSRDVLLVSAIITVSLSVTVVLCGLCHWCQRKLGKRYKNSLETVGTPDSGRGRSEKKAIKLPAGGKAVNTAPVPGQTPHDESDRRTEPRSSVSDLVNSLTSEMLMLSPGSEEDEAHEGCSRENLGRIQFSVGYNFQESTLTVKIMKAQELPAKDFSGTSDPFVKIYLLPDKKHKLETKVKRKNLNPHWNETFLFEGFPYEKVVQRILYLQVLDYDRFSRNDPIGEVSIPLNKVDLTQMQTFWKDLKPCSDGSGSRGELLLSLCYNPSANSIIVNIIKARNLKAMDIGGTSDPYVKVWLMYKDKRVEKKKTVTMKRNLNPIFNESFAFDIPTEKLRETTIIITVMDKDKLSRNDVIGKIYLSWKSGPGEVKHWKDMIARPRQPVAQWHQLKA

Biological target: T1, Esyt1-GFP (UniProt Q9BSJ8)
T1 sequence: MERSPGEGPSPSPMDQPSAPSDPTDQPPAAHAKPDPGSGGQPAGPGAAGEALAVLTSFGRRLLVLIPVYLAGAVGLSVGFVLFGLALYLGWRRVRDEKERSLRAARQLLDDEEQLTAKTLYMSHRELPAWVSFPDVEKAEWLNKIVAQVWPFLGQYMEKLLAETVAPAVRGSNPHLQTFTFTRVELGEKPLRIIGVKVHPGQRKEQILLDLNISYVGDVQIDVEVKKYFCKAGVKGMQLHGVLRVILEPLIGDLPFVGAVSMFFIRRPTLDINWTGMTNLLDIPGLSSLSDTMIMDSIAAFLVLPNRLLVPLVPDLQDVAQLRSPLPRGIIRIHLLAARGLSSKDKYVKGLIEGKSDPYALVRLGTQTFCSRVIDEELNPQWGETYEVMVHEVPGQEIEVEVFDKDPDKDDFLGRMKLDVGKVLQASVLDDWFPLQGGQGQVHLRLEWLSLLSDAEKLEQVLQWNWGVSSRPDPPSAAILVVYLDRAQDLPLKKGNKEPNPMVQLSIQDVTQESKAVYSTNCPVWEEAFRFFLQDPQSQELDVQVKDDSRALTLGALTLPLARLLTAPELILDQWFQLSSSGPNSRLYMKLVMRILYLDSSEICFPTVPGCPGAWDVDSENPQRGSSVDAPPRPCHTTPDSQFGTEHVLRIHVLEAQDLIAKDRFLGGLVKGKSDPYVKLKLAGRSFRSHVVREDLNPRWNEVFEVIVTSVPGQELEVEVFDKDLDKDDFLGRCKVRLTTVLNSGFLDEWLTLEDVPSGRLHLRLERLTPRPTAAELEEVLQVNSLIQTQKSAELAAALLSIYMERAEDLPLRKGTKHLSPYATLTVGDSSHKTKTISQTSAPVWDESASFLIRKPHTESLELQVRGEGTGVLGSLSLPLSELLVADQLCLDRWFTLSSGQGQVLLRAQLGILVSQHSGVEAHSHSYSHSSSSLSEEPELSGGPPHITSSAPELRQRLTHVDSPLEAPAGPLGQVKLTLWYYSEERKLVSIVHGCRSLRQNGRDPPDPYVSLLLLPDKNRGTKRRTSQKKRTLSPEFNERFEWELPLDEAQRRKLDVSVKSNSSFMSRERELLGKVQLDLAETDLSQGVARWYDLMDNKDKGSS
Assay: affinity purification with mass spectrometry; 786 O/OE-SR cells transfected with Esyt1-GFP; precipitated with anti-GFP antibody (TaKaRa Co-IP kit); SDS-PAGE, in-gel trypsin digest, Orbitrap Q Exactive HF-X

Synaptotagmin7 (Syt7) (from UniProt O43581 1-403)
binding: binds
